In US6579881B2 (Eisai Co., Ltd., priority 1997, dated 2003):
Where a name gives a salt, the structure may show the parent alone.

Molecular target: α1 adrenalin receptor
Assay: Binding test on [3H] prazosin (α1 adrenalin receptor)
Settings: [3H] prazosin about 0.2 nM, receptor fraction of rat cerebral cortex
Protocol: (1) Binding Test on Serotonin 1A, Serotonin 2 and α1 Adrenalin Receptors
These compounds and test compounds, when insoluble in water, were dissolved in ethanol and then diluted with distilled water so as to each give an ethanol concentration of 10%. Methysergide maleate was dissolved in distilled water before using.
Use was made of SD rats aged 6 to 8 weeks.
The rats were sacrificed by dcapitation to extirpate the cerebra. The hippocampus and cortex were separated therefrom and employed in the binding tests respectively on the serotonin 1A receptor and the serotonin 2 receptor.
The hippocampus was mixed with 50 times (on the wet weight basis) as much a 0.32 M sucrose solution while the cortex was mixed with 10 times as much the same solution. Each mixture was homogenized by using a Teflon glass homogenizer and centrifuged at 1,000×g for 10 min. […]
Next, it was filtered through a glass filter with the use of a cell harvester. After washing the glass filter with 50 mM Tris hydrochloride (pH 7.4), the radioactivity of the receptor was measured with a liquid scintillation counter. The binding detected in the presence of 10 μM of phentolamine was referred to as the nonspecific binding.
Subsequently, the abilities of typical examples of the compounds of the present invention to bind to the α1 adrenalin receptor were evaluated by the test method described above.

Compound: CN1CCC(=C2c3ccccc3C=Cc3ccccc32)CC1 [Cyproheptadine, cyproheptadine hydrochloride, reference compound]
- Ki: 1900 nM
